Some of these results come from one statement about several compounds together. At least one compound was matched to its structure with a doubt left.
Test system: SARS-CoV2 virus (Virus ID: USA_WA1/2020)
Format: cell-based
Settings: Vero 76, Caco-2 or Calu-3 cells; summary of FIG. 2; about 8 or greater

| Compound | SI or SI50 (CC50 divided by EC50 or CC50 divided by EC90) |
| --- | --- |
| Cc1coc2c1C(=O)C(=O)c1c-2ccc2c(C)cccc12 [tashinone I] | ≥ 8 |
| O=C(O)[C@H]1O[C@@H](Oc2cc3oc(-c4ccccc4)cc(=O)c3c(O)c2O)[C@H](O)[C@@H](O)[C@@H]1O [baicalin] | ≥ 8 |
| CCNCc1cc(Nc2ccnc3cc(Cl)ccc23)ccc1O [desethylamodiaquine] | ≥ 8 |
